# From the supplement of paper PMC8166895
# Where a name gives a salt, the structure may show the parent alone. This is one part of the list. Most entries show no effect beyond the scatter of the controls.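 A single-replicate pilot screen of approved drugs and clinical or known-target compounds measured melting temperature via differential scanning fluorimetry. Top stabilizing hits raised the melting point by 2 °C or more; negative shifts indicate destabilization.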
# Tested on: SARS-CoV-2 main protease (Mpro, nsp5)
# Experiment: thermal shift ΔTm of Mpro relative to plate average Tm; higher = stronger thermal stabilization of Mpro (binding)
# Settings: 10 µM; protein concentration 1 µM
row,Structure (SMILES),thermal shift ΔTm of Mpro
1,N=C(N)NC(=O)Cc1c(Cl)cccc1Cl [Guanfacine hydrochloride],0.332 °C
2,OCC(O)COc1ccc(Cl)cc1 (centres undefined) [Chlorphenesin],0.252 °C
3,CC(C)=CCC[C@]1(C)C=Cc2c(O)c3c(c(CC=C(C)C)c2O1)O[C@]12C(=C[C@@H]4C[C@H]1C(C)(C)O[C@@]2(C/C=C(/C)C(=O)O)C4=O)C3=O [Gambogic Acid],-0.218 °C
4,CCNC(=O)C[C@@H]1N=C(c2ccc(Cl)cc2)c2cc(OC)ccc2-n2c(C)nnc21,0.0921 °C
5,Nc1cccc2c1C(=O)N(C1CCC(=O)NC1=O)C2=O (centres undefined) [Pomalidomide],-0.236 °C
6,c1cnc(N2CCNCC2)nc1 [2-(1-Piperazinyl)pyrimidine],-0.0746 °C
7,Oc1ccc(OC2CCCCO2)cc1 (centres undefined) [Deoxyarbutin],-0.785 °C
8,COc1ccccc1N1CCN(CCN(C(=O)C2CCCCC2)c2ccccn2)CC1,0.0724 °C
9,Nc1ccn([C@@H]2O[C@H](CO)[C@@H](O)C2(F)F)c(=O)n1 [Gemcitabine],-0.0153 °C
10,CO[C@H]1C[C@@H]2CC[C@@H](C)[C@@](O)(O2)C(=O)C(=O)N2CCCC[C@H]2C(=O)O[C@H]([C@H](C)C[C@@H]2CC[C@@H](OCCO)[C@H](OC)C2)CC(=O)[C@H](C)/C=C(\C)[C@@H](O)[C@@H](OC)C(=O)[C@H](C)C[C@H](C)/C=C/C=C/C=C/1C [Everolimus (RAD001)],-0.593 °C
11,Fc1ccc(Cl)cc1-c1nc(Nc2ccncc2)c2nccnc2n1,-0.141 °C
12,CN(C)CCN(Cc1ccccc1)c1ccccn1 [Tripelennamine HCl],-0.113 °C
13,CC1CNc2c(cccc2S(=O)(=O)N[C@@H](CCCNC(=N)N)C(=O)N2CC[C@@H](C)C[C@@H]2C(=O)O)C1 (some centres undefined) [Argatroban],0.142 °C
14,COC(=O)Nc1nc2ccccc2[nH]1 [Carbendazim],0.0379 °C
15,CC(=O)O[C@@]12CO[C@@H]1C[C@H](O)[C@@]1(C)C(=O)[C@H](O)C3=C(C)[C@@H](OC(=O)[C@H](O)[C@@H](NC(=O)OC(C)(C)C)c4ccccc4)C[C@@](O)([C@@H](OC(=O)c4ccccc4)[C@H]21)C3(C)C [Docetaxel],-0.0407 °C
16,CC(=O)O[C@@]12CO[C@@H]1C[C@H](O)[C@@]1(C)C(=O)[C@H](O)C3=C(C)[C@@H](OC(=O)[C@H](O)[C@@H](NC(=O)OC(C)(C)C)c4ccccc4)C[C@@](O)([C@@H](OC(=O)c4ccccc4)[C@H]21)C3(C)C [Docetaxel Trihydrate],-0.118 °C
17,Nc1ncnc2c1ncn2[C@@H]1O[C@H](CO)[C@@H](O)[C@H]1O [Adenosine],0.036 °C
18,Clc1ccc(CSC(Cn2ccnc2)c2ccc(Cl)cc2Cl)cc1 (centres undefined) [Sulconazole Nitrate],-0.36 °C
19,O=C(c1ccc(Nc2nccc(-c3cc4ccccc4s3)n2)cc1)N1CCC(N2CCCC2)CC1 [IKK-16 (IKK Inhibitor VII)],-0.122 °C
20,CN1c2ccccc2C(NCCCCCCC(=O)O)c2ccc(Cl)cc2S1(=O)=O (centres undefined) [Tianeptine sodium],0.138 °C
21,C[C@@H](NC(=O)c1ncnc(N)c1Cl)c1ncc(C(=O)Nc2cc(C(F)(F)F)c(Cl)cn2)s1,-0.00957 °C
22,Cc1cc(/C=C2/SC(=S)NC2=O)c(C)n1-c1cccnc1 [Optovin],-0.0603 °C
23,Cc1cc(C)c(Nc2ccnc(Nc3ccc(C#N)cc3)n2)c(C)c1 [Dapivirine (TMC120)],-0.0313 °C
24,CCn1c(=O)c(-c2ccc(-c3cncc(C)n3)cc2Cl)cc2cnc(NCCC3CCN(C)CC3)nc21,0.192 °C
25,C[C@]12CC[C@@H]3c4ccc(O)cc4CC[C@H]3[C@@H]1CC[C@@H]2O [Estradiol],-0.233 °C

# Look-ups from the results shown:
# thermal shift ΔTm of Mpro with CCn1c(=O)c(-c2ccc(-c3cncc(C)n3)cc2Cl)cc2cnc(NCCC3CCN(C)CC3)nc21 reads 0.192 °C
# thermal shift ΔTm of Mpro with C[C@]12CC[C@@H]3c4ccc(O)cc4CC[C@H]3[C@@H]1CC[C@@H]2O [Estradiol] reads -0.233 °C
# thermal shift ΔTm of Mpro with Nc1ccn([C@@H]2O[C@H](CO)[C@@H](O)C2(F)F)c(=O)n1 [Gemcitabine] reads -0.0153 °C

# Going on with the list:

row,Structure (SMILES),thermal shift ΔTm of Mpro
1,CCCCCOC1CCC(NC(=O)c2cnn3c(C)cc(C)nc23)CC1 (centres undefined),-0.239 °C
2,CCCC(CCC)C(N)=O [Valpramide],0.124 °C
3,CC(OC(=O)OC1CCCCC1)OC(=O)C1=C(CSc2nnnn2CCN(C)C)CS[C@@H]2[C@H](NC(=O)Cc3csc(N)n3)C(=O)N12 (some centres undefined) [Cefotiam Hexetil Hydrochloride],0.0946 °C
4,CCNC(=O)Nc1ccc(-c2nc3c(c(N4CCOC[C@@H]4C)n2)CCN(C2COC2)C3)cc1,-0.215 °C
5,CC(C)(C)n1nc(Cc2cccc3ccccc23)c2c(N)ncnc21,-0.244 °C
6,CN(C)c1cc(NC(=O)CNC(C)(C)C)c(O)c2c1C[C@H]1C[C@H]3[C@H](N(C)C)C(=O)C(C(N)=O)=C(O)[C@@]3(O)C(=O)C1=C2O [Tigecycline],0.182 °C
7,CCCN(CCC)S(=O)(=O)c1ccc(C(=O)O)cc1 [Probenecid],0.049 °C
8,COc1ccc(C(=C2C(=O)Nc3ccccc32)c2ccc(OC)cc2)cc1,0.0147 °C
9,CCN(CC)C(=O)c1cccc(C)c1 [Delphene],0.192 °C
10,CCN(CC)C(=O)c1cccnc1 [Corvotone],0.141 °C
11,CC(C)c1ccc(NC(=O)Cn2cnc3c2c(=O)n(C)c(=O)n3C)cc1,-0.083 °C
12,CNC(=O)CNc1cnc2ccc(-c3ccc(OC)c(OC)c3)cc2n1,0.0348 °C
13,C[C@H](NC(=O)/C(C#N)=C/c1cccc(Br)n1)c1ccccc1,-0.733 °C
14,CCNC(=O)c1[nH]nc(-c2cc(Cl)c(O)cc2O)c1-c1ccc(OC)cc1,0.263 °C
15,CCC(CC)n1ccc2c(C(=O)NCc3c(C)cc(C)[nH]c3=O)cc(C#N)cc21,-0.114 °C
16,N#Cc1nn(-c2c(Cl)cc(C(F)(F)F)cc2Cl)c(N)c1[S+]([O-])C(F)(F)F (centres undefined) [Fipronil],0.16 °C
17,COc1ccc2[nH]c([S+]([O-])Cc3ncc(C)c(OC)c3C)nc2n1 (centres undefined) [Tenatoprazole],-1.09 °C
18,CCOC(=O)CCNc1cc(N2CCc3ccccc3CC2)nc(-c2ccccn2)n1,-0.102 °C
19,CN1CCN(C(=O)C2C(C(=O)O)[C@H]3CC[C@@H]2O3)CC1 (some centres undefined),-0.0726 °C
20,CN(C)CCOC(c1ccccc1)c1ccccc1 [Diphenhydramine HCl],0.075 °C
21,Cc1cc(=O)oc2c(C=O)c(O)ccc12,-0.00868 °C
22,CC(=O)[C@H]1CC[C@H]2[C@@H]3CCC4=CC(=O)CC[C@]4(C)[C@H]3CC[C@]12C [Progesterone],-0.0859 °C
23,Cn1cc(CNCC2CCN(c3ncc(C(=O)NO)cn3)CC2)c2ccccc21 [Quisinostat],0.0106 °C
24,Cn1cc(CNCC2CCN(c3ncc(C(=O)NO)cn3)CC2)c2ccccc21,0.206 °C
